## Results from one PubChem assay

Data taken from PubChem BioAssay AID1159506, deposited by NCATS (2015).

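Genome-wide siRNA knockdown in TC32 Ewing sarcoma cells, comparing luciferase light from an NR0B1-promoter reporter with a CMV-promoter reporter 48 hours after transfection. Each siRNA was applied at 20 nM. A z-score of the log NR0B1-over-CMV signal, less the median of siRNAs with the same seed; more negative means a stronger specific loss of the NR0B1 reporter.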

This is part of the screen; most of the strongest results are not listed here. Sequences are the guide (antisense) strand, without overhang.

| siRNA | target gene | seed-corrected z-score |
|---|---|---|
| `UUCAUCCCAAUCUAGCUGG` | CLK4 | -0.5006 |
| `UAUCGGUGAACUCCUCUGC` | GUCA1A | -0.2723 |
| `AAAGUGAUAAAAACCCAGC` | R3HDM4 | 0.6832 |
| `UCUGUUUUCAGCACGCCGU` | PRDX2 | -0.2241 |
| `AAGGCUUGUAGGAUGGUGG` | CYP2S1 | -0.008515 |
| `UGAUAUCCAAAGAUGAAGC` | LTN1 | -0.2748 |
| `UCAUAGACAGCAUUCUUUG` | GRAMD2 | 0.5654 |
| `AACCAUUUAAUCAUUCUUC` | ACCS | -0.8268 |
| `AGCUGGUACCUACAUAUGC` | NOL3 | 0.311 |
| `UUUCUGACAACCGUAGUCC` | TRPC1 | -0.3258 |
| `UAGUCUUUAAUGCCUUGUC` | GLRX5 | -0.1722 |
| `AUGUUUUGGACAUUUCCCU` | CYB5A | 0.2301 |
| `AAACUUACCCAGGACCAGG` | ADARB1 | -0.7728 |
| `UUUGUUGAGCGGAUUGUAG` | C1orf52 | 0.3197 |
| `UCAGGCUUGACUAGGCUCC` | VHL | 0.8039 |
| `AACAUGACGAGCGUGAGCG` | KCNK3 | -1.401 |
| `UUUCUUCACAUUGCCCUUG` | CXCL17 | -0.09933 |
| `UUAGCACAAUAAACAGGCC` | CDRT15L2 | -0.1792 |
| `UUCGUUAACACGGCUACUG` | MERTK | 0.6508 |
| `UUGGUAUGAUUUUUCCUCC` | UGT3A1 | 0.002798 |
| `UUCUGUAGGGUCAUCGUCC` | ALKBH6 | 0.1415 |
| `UGUUAACAAAGGAUUAAGG` | KPNA6 | 1.071 |
| `UCCGAAAGUAGUUAUCUCG` | RALB | -0.9931 |
| `UAACAAAUGGUCAAAAUGG` | KRTAP3-1 | 0.2616 |
| `UUAGGUACAGGUCAUUGCG` | DOCK3 | -0.03778 |
| `UUCUUGUCCACCGACUUCU` | CEBPA | 0.467 |
| `AAAGUAGACUCUCUCAGCC` | RPIA | -0.6233 |
| `AGAGAUUGUGGUUUGUCCC` | NUDT7 | 1.782 |
| `UAAGAGCGUGCAGCUGUCC` | TESK1 | -0.487 |
| `UUUUGUGCACCAACAGACU` | MDM2 | -0.3656 |
| `UAAUUAUGCACCUUCGAGG` | WT1-AS | -1.688 |
| `UACACGUAGAUUAUGGUGC` | OR2G3 | -0.8485 |
| `UAGCUUGUGACAAUAGAUG` | FBXL13 | -0.03468 |
| `UCCGUCACCUUCAUAAUCC` | STAB2 | -0.11 |
| `UACCUAUAUCUAACAGUCC` | OR2U1P | -0.01222 |
| `AUUCGAUUCAUUGAGCCUG` | KHSRP | 0.9281 |
| `UUCCGAAACACUGACAUCC` | UHMK1 | -0.3509 |
| `UACUUUGAUAUCCAAAUGG` | ILF2 | -0.2763 |
| `AUUGUCUAGAGGAACAACC` | PEX1 | -0.3521 |
| `AAAGGUCGACCAUCUUUGC` | LMBRD1 | 2.724 |
| `UUUCCUCCAAUAUCAGAUU` | CCDC69 | 0.1044 |
| `UCUUUUACACUAGAGAUUC` | CCDC3 | -1.245 |
| `UAGGCUAUGAACUUGUUGC` | VPS11 | 0.7014 |
| `UCUUGGUAAGUCACCCUCU` | ADM2 | 0.02871 |
| `UUCCUGAUAAUUCCACCAG` | GTF3C6 | 0.5209 |
| `UAAGUUAUAAUUGUAGAGA` | LOC645553 | -0.7558 |
| `UUCAUACCUAGCGACCACC` | WNT5A | 0.3255 |
| `UAAGUUUAGAGGUCUCGGC` | WAS | 0.02514 |
| `UUACUUGUAGUGGUCAAUG` | ITFG1 | 0.2035 |
| `UAAACACCAACCAGCUCCG` | CCDC187 | 1.429 |
| `ACGGAGACCACUUACAGCC` | TYROBP | -0.1611 |
| `UCAUUGACUAGGGAGAACC` | CDH16 | -0.4873 |
| `UCCAUAAUUAUGCAACUGG` | HOXA5 | 0.8373 |
| `AUACGGAUUCUUACUUUUU` | LINC01548 | -0.2099 |
| `UUCGGGUAAGUCUUGGUUC` | SWI5 | 0.2055 |
| `UUAGGAAUCAGUUUACUCA` | ITGB7 | 0.9738 |
| `UAGAAAUCUAAUGAUCUUC` | SULT1B1 | -0.515 |
| `AUAGUAGUCUGAGAAGACG` | TEX33 | 1.887 |
| `AAACGGAUAAGCGAUGCAG` | TMEM178A | -0.6925 |
| `AAACUGAUCCUCCAAUAGC` | CCND1 | -0.5317 |
| `UGAAAUCUCAUGGAUAUUC` | TIMM9 | 0.2035 |
| `CAAUGGACUCUCGAAUCUC` | LOC643554 | 0.3934 |
| `UCAUAUAAUGGACCCAUCC` | CKS1B | -0.0009078 |
| `UCGUCUAUCAUAGCAUUCC` | GNAQ | 0.07192 |
| `UCGGUGACUACGGAGCUUC` | RPS23 | 1.628 |
| `AUUAUUUCUGCAGUGUCUG` | MRPS36 | 1.136 |
| `UGUCGGAUCAGACUCUUCC` | GDPD3 | 0.9123 |
| `UCUUUAAACAUGCAUAGCC` | GNG2 | 0.1704 |
| `AUAGGUCCAAUGGUGGUUC` | DNPEP | -0.2016 |
| `UUUGGUAAAUGUCCAAACC` | EMC1 | 0.6338 |
| `UUCGAGACCAAAUGCAGCC` | RGL1 | 0.5546 |
| `UCAGGGUAAAUCGCAGAGG` | TTI1 | -1.01 |
| `UCUUCGAUAUAAAUUCUCU` | ZNF492 | 0.002681 |
| `UUCCUUAAAAACUUCAGGC` | SPOP | 0.313 |
| `UCAAGAUCUAGCUCAUUUG` | MAMLD1 | 0.1027 |

Some entries from above, unchanged:

siRNA,target gene,seed-corrected z-score
UAAACACCAACCAGCUCCG,CCDC187,1.429
AGAGAUUGUGGUUUGUCCC,NUDT7,1.782
UUUGGUAAAUGUCCAAACC,EMC1,0.6338
UACACGUAGAUUAUGGUGC,OR2G3,-0.8485
UCAGGGUAAAUCGCAGAGG,TTI1,-1.01
UCUUCGAUAUAAAUUCUCU,ZNF492,0.002681